Reference: PubChem BioAssay AID743255 (National Center for Advancing Translational Sciences (NCATS), 2014)
Screen size: about 390,000 compounds; about 910 (0.23%) were called active. Inconclusive means that the source gave no clear call. Such entries were picked first, then a sample of the others. Calls follow the shape of the dose curve; as a rule, active = well fitted inhibition curve with a large enough effect; inconclusive = small, poorly fitted or top-dose-only effect; inactive = no such curve, though single readings can be large or run the other way. A potency beside an inconclusive call is a rough fit, not a confirmed value.

Protein sequences, listed by entry. Tags and fused reporters are not part of them. Lines headed by an entry give the natural chain unless they say otherwise; changes in a name come on top.
UniProt O94782: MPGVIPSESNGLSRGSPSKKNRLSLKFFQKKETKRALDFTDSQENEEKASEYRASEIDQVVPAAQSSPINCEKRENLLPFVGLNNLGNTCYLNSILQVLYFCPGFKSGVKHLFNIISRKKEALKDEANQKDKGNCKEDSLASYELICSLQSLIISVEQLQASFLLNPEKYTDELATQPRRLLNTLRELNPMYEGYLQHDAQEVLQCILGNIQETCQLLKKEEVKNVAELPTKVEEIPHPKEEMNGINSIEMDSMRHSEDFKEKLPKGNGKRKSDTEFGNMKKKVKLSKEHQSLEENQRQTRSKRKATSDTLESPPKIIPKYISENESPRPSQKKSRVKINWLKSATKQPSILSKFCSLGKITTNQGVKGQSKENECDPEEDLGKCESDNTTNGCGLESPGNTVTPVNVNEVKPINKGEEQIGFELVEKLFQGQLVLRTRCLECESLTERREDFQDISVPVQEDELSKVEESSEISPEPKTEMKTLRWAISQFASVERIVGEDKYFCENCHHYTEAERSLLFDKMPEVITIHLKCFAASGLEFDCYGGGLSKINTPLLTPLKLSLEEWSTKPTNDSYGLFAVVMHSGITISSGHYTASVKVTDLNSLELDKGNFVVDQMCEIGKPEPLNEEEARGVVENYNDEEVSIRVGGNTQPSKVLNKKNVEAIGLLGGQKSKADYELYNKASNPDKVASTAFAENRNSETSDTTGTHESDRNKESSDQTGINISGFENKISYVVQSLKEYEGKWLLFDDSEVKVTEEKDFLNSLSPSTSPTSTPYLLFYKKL

molecular target: Ubiquitin carboxyl-terminal hydrolase 1 (Homo sapiens) (UniProt O94782); assay: Inhibitors of USP1/UAF1: Primary Screen; settings: recombinant USP1/UAF1, Ub-Rhodamine cleavage fluorescence; activity change, negative = inhibition: at 57.1 µM (top of the series); also: nearly all actives have a fitted effect of over 60% in size
How it was run: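 Step one: compound is pinned into 1nM USP1/UAF1 in HEPES pH 7.8 buffer with TCEP. Step two: 15 min room-temperature incubation. Step three: Ub-Rho (150nM final) starts cleavage, tracked by fluorescence over six one-minute reads.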
% is scaled to controls: 0 for no effect and ±100 for the full control effect; potency is read from the fitted curve at half-maximal effect.

SMILES	Potency	activity change, negative = inhibition
CCNc1nc(Oc2ccc(C#N)cc2)cc(C(F)(F)F)n1	inconclusive: 17.8 µM [inhibitor, partial curve, poor fit]	
C=CCn1c(SCc2ccc(C#N)cc2)nnc1-c1cccc(Cl)c1	inactive	
CCOC(=O)c1cccc(NC(=O)NC(C)c2c(-n3cccc3)sc3c2CCN(C)C3)c1 (stereo not given)	inconclusive: 14.1 µM [inhibitor, partial curve, poor fit]	
CCOc1ccccc1N1CC(C(=O)N(CC)C2CCS(=O)(=O)C2)CC1=O (stereo not given)	inconclusive: 15.8 µM [inhibitor, partial curve]	
Cc1ccccc1C(=O)N1CCC(C(=O)Nc2ccc(F)cc2F)CC1	inconclusive: 5.01 µM [inhibitor, full curve, poor fit]	
COc1ccc(OC)c(NC(=O)COC(=O)c2ccc(S(=O)(=O)N3CCCCC3)cc2)c1	inactive	
Cc1cc(C)n(-c2nc(SCCN(C)C)c3c4c(sc3n2)CCCC4)n1	inactive	
COc1ccc(/C=N/n2c(C)nc3ccccc3c2=O)cc1	inconclusive: 5.62 µM [inhibitor, partial curve, poor fit]	
COc1ccc(O)c(C(=O)c2coc(=N)c(C(=O)Nc3ccc(SC(F)F)cc3)c2)c1	inconclusive: 17.8 µM [inhibitor, partial curve]	
COc1nn(-c2ccccc2)c(=O)c(Cl)c1Cl	inconclusive: 35.5 µM [inhibitor, single point]	
Cc1cc(=O)[nH]c(SCC(=O)c2ccc(O)c(O)c2)n1	inactive	
COc1cccc(N2CCN(C3CC(=O)N(c4ccc(Cl)c(Cl)c4)C3=O)CC2)c1 (stereo not given)	inconclusive: 44.7 µM [inhibitor, partial curve]	
COc1ccc(-c2nnc(NC(=O)C3CCCN3S(=O)(=O)c3cccs3)o2)cc1 (stereo not given)	inconclusive: 3.98 µM [inhibitor, full curve]	
Cc1nn(-c2ccc(F)cc2)c2sc(C(=O)O)cc12	inconclusive: 2.51 µM [inhibitor, partial curve]	
O=C(Cn1c(=O)nc(-c2ccccc2F)c2cc(Cl)ccc21)NCCCc1ccccc1	inconclusive: 6.31 µM [inhibitor, full curve, poor fit]	
COc1cccc(NC(=O)CNc2cc(S(=O)(=O)N3CCOCC3)ccc2N2CCCC2)c1	inconclusive: 20 µM [inhibitor, partial curve, poor fit]	
CCNC(=O)O/N=C1\CCCCC1c1ccc([N+](=O)[O-])cc1[N+](=O)[O-] (stereo not given)	inconclusive: 39.8 µM [inhibitor, partial curve]	
COc1ccc(-c2noc(C)c2-c2ccc3ccccc3n2)c(O)c1	inconclusive: 35.5 µM [inhibitor, partial curve]	
C#CCOCCOCCOCCNc1nc(N2CCN(C(=O)CCCCCCCCCCNC(=O)[C@H](CCCCN)n3cc(CCCC(=O)O)nn3)CC2)nc(N2CCN(C(=O)CCCCCCCCCCNC(=O)[C@@H]([C@H](C)O)n3cc(C)nn3)CC2)n1	inconclusive: 4.47 µM [inhibitor, full curve, poor fit]	
Cc1nnc(N/N=C/c2cc(C)n(-c3ccc(F)cc3)c2C)n1N	inconclusive: 31.6 µM [inhibitor, single point]	

SMILES	Potency	activity change, negative = inhibition
O=C(Nc1nc(-c2ccccc2)cs1)c1cccs1	inactive	
CCOc1ccc(Nc2nn(-c3ccc(OC(F)(F)F)cc3)nc2C(C)=O)cc1	inactive	
CC(C)C(C)NC(=O)COc1nc2ccccc2nc1N(C)C1CCCCC1 (stereo not given)	inconclusive: 17.8 µM [inhibitor, partial curve]	
CN(C(=O)c1ccc(N2CCCCC2)c([N+](=O)[O-])c1)C1CCS(=O)(=O)C1 (stereo not given)	inconclusive: 17.8 µM [inhibitor, partial curve]	
c1ccc2c(Nc3nc(N4CCOCC4)c4ccccc4n3)cccc2c1	inconclusive: 2 µM [inhibitor, full curve, poor fit]	
CCOc1ccccc1N(C)C(=O)c1c2c(nc3ccccc13)C(=O)N(C1CCCCC1)C2		inconclusive: -20.2% [inhibitor]
CCO[C@H]1OC(C(N)=O)=C[C@@H](C2CC2)[C@@H]1CCCO	inconclusive: 5.62 µM [inhibitor, partial curve]	
CSc1oc(-c2cccs2)nc1S(=O)(=O)c1ccc(Br)cc1	inconclusive: 5.01 µM [inhibitor, single point]	
C=CCn1c(=O)[nH]c(=O)c2c(N)c(C(=O)c3ccc(OC)cc3)sc21	inconclusive: 0.398 µM [inhibitor, partial curve, poor fit]	
O=C(CN(Cc1ccccc1Cl)C(=O)c1csnn1)NCc1ccccc1	inconclusive: 4.47 µM [inhibitor, partial curve]	
COc1ccc(CNC(=O)C2CCCN(c3nnc(C)c4c(C)n(-c5ccc(C)cc5)nc34)C2)cc1 (stereo not given)	inconclusive: 1 µM [inhibitor, partial curve]	
Cc1[nH][nH]c(=O)c1C(c1ccc(-c2cccc(Cl)c2)o1)c1c(C)[nH][nH]c1=O	active: 28.2 µM	
CC(=O)c1ccc(S(=O)(=O)N2Cc3ccccc3CC2C(=O)O)cc1 (stereo not given)	inconclusive: 44.7 µM [inhibitor, partial curve, poor fit]	
CCOc1cc(/C=N/Nc2cccc(C(=O)O)c2)ccc1OCC(=O)N1CCCCC1	inconclusive: 35.5 µM [inhibitor, partial curve, poor fit]	
On1onc2c3cc(-c4ccccc4)nc3ccc21	inactive	
CCn1c(SCC(=O)Nc2ccc3c(c2)c2ccccc2n3CC)nnc1-c1ccco1	inconclusive: 15.8 µM [inhibitor, partial curve, poor fit]	
CCCN1C(=O)/C(=C\c2nc3ccccc3c(=O)[nH]2)c2ccccc21	inactive	
Oc1cccc(/C=N\Nc2nncc(-c3ccccc3)n2)c1	inactive	
CCC(Sc1nnc(-c2ccc(OC)c(OC)c2)c(-c2ccc(OC)c(OC)c2)n1)C(=O)NC1CCCC1 (stereo not given)	inactive	
COc1ccc(C(=O)Nc2nc3ccccc3n2CCOc2ccc(Cl)cc2)cc1	inconclusive: 8.91 µM [inhibitor, single point]	
